According to the supplement of paper PMC10849652:
The list shows a part of the results.

By UniProt entry, the sequences of proteins in these tests, tags left out. Where a name states a change or a piece, a line headed by the entry shows the natural chain unless it says otherwise.
UniProt Q92917: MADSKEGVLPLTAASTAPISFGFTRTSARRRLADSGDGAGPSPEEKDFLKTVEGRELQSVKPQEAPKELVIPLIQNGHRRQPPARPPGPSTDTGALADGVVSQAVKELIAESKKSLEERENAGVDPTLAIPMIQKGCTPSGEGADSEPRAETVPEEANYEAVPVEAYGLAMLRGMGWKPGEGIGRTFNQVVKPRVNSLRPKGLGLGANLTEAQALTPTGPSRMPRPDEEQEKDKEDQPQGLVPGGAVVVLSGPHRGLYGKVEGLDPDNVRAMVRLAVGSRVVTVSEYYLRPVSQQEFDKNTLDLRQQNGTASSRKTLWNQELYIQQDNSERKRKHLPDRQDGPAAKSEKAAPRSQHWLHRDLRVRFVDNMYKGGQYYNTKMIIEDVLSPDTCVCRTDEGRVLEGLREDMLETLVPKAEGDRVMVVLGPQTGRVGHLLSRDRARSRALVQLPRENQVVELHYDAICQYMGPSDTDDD
UniProt Q86V85: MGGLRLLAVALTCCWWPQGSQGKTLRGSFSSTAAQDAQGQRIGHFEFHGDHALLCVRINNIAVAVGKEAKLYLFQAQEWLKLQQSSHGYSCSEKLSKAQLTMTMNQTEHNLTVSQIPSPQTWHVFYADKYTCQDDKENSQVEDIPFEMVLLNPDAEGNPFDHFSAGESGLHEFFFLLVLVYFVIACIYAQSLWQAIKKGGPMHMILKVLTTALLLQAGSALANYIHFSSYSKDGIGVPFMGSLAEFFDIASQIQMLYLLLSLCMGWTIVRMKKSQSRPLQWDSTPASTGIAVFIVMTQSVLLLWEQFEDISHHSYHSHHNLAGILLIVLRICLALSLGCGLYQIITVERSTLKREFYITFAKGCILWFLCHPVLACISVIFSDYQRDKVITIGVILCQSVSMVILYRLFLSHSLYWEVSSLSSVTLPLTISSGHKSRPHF
UniProt O94925: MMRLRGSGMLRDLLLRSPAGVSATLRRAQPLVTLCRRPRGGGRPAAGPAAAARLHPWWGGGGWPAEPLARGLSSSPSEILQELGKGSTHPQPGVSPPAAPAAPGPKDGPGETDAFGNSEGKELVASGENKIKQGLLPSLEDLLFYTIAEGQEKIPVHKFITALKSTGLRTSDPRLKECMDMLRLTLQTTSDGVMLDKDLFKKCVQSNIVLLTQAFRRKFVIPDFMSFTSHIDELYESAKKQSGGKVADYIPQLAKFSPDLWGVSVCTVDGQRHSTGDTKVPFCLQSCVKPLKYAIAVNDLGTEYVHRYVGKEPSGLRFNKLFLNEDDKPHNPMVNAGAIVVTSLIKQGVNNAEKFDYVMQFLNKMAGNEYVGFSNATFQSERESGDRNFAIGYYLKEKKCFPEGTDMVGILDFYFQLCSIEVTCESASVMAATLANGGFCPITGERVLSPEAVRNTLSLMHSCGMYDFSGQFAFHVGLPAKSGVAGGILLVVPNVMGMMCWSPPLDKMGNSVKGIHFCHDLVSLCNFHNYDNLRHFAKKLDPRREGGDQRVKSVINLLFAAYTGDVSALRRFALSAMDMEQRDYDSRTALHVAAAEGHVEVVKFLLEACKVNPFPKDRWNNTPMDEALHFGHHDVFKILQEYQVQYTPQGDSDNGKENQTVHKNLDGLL
UniProt O15228: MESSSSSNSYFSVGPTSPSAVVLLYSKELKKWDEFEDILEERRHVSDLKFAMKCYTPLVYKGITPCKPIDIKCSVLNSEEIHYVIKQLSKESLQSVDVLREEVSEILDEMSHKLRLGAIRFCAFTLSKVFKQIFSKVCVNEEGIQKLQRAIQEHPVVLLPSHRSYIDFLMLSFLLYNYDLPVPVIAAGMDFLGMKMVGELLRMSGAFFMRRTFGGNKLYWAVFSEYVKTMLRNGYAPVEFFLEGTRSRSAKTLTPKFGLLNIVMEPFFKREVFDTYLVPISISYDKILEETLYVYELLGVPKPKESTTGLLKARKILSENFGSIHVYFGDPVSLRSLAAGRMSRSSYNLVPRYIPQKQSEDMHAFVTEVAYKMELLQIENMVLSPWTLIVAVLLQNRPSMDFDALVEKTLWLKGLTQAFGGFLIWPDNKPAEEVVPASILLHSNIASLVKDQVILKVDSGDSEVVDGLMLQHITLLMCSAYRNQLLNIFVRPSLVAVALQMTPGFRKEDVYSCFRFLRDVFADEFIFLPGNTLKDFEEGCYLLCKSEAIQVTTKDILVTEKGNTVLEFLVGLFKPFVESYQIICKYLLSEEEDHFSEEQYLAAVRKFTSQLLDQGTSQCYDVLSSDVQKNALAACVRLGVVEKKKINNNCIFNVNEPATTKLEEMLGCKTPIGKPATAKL
UniProt Q9UKD1: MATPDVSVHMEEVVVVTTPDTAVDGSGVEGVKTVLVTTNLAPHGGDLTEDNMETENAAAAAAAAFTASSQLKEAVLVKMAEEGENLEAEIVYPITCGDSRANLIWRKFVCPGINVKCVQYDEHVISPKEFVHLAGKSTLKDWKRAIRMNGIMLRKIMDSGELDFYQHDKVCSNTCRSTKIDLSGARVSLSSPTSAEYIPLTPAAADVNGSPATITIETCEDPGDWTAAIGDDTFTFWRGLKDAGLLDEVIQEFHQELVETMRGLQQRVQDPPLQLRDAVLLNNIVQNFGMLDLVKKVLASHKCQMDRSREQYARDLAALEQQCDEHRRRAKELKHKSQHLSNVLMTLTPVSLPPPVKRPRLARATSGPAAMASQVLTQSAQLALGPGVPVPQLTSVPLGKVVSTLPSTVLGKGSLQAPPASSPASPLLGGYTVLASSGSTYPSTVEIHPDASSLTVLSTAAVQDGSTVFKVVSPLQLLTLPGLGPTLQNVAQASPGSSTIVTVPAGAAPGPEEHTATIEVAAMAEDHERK
UniProt Q9H4A6: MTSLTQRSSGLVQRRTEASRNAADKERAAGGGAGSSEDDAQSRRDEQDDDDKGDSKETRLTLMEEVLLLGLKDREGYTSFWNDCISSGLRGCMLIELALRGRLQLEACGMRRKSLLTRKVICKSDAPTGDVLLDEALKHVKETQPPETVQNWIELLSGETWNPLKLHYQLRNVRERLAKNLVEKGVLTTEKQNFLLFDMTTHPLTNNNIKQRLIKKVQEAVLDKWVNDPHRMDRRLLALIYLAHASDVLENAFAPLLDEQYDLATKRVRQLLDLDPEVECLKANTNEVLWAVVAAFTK
UniProt Q6Y7W6: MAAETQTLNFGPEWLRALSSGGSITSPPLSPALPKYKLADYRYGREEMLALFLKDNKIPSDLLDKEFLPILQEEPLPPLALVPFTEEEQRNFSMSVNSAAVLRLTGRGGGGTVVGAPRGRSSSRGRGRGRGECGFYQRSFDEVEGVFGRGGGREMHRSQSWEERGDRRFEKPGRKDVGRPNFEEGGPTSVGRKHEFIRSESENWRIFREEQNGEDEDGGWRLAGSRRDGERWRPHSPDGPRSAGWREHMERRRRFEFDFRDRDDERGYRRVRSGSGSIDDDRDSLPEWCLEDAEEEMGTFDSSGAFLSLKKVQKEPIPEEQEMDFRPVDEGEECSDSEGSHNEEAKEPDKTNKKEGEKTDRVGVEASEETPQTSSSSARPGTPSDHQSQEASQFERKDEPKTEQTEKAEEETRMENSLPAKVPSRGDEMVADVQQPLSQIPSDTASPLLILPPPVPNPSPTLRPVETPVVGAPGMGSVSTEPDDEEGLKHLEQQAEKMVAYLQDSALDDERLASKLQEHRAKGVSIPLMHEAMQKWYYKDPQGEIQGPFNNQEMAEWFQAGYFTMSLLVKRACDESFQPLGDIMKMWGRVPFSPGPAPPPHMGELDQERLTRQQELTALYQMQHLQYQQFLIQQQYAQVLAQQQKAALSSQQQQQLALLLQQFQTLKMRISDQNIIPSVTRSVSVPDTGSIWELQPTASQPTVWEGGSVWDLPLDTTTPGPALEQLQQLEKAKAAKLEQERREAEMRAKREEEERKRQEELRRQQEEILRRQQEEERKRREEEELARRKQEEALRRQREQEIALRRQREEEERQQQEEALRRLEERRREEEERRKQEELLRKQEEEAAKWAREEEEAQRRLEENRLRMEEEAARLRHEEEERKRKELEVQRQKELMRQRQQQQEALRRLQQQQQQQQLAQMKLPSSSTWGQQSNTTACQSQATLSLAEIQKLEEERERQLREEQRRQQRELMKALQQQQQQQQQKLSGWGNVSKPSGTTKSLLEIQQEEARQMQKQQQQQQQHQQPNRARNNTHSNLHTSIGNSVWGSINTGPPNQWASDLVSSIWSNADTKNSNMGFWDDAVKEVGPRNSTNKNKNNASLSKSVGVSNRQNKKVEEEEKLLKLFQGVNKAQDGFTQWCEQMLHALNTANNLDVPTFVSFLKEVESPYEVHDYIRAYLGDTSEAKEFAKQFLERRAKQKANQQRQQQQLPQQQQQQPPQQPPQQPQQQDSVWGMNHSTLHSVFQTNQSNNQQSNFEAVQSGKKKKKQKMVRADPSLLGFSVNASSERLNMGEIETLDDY
UniProt P08754, whole entry, looked up: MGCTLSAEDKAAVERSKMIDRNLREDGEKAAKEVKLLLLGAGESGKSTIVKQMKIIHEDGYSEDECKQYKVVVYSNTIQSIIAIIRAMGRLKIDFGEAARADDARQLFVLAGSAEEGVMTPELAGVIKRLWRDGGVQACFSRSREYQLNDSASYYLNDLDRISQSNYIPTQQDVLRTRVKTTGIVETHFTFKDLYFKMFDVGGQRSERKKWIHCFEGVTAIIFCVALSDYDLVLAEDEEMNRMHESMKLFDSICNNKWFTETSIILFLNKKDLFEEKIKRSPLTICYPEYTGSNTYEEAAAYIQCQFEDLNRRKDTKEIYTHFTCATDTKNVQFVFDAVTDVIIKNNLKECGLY
UniProt Q9Y692: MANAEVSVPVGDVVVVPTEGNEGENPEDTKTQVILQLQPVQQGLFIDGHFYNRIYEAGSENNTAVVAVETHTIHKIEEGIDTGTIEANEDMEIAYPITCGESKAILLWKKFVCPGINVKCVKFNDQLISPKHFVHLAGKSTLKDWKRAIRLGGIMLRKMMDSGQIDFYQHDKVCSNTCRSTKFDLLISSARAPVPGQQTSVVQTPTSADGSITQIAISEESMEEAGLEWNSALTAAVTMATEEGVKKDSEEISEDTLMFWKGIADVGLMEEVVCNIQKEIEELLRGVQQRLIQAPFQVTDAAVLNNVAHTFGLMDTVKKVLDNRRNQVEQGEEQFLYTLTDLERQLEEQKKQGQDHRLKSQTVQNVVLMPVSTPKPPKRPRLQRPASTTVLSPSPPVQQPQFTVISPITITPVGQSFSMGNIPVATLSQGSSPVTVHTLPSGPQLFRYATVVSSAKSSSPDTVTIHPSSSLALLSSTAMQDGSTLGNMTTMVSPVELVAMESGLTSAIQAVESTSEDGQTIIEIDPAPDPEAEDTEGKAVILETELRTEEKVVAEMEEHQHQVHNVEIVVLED

Assays:
Assay in all cases: log2 fold change, soluble protein after heating vs DMSO (PISA); higher = thermal stabilisation; K562 cells, 10 uM, 30 min; active = over 0.2 and 3.5 SD of the protein, either way, in both replicates (recomputed)
saracatinib = compound: CN1CCN(CCOc2cc(OC3CCOCC3)c3c(Nc4c(Cl)ccc5c4OCO5)ncnc3c2)CC1 [saracatinib]
In short: (§1)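 Soluble protein was quantified by TMTpro 16plex LC-MS/MS after channel sums were equalised. It was obtained as the supernatant after 21,000xg for 90 min from pooled aliquots of K562 cells (2×10^6 cells/mL, 10 μM compound, 30 min) heated for 3 min across 48°C-58°C and extracted in PBS with 0.5% NP-40 at 4°C. Thermal stability values are relative to control samples and come from duplicates. They are given as log2 fold changes.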

sotrastaurin = compound: CN1CCN(c2nc(C3=C(c4c[nH]c5ccccc45)C(=O)NC3=O)c3ccccc3n2)CC1 [sotrastaurin]
In short: as §1

Tubastatin A = compound: CN1CCc2c(c3ccccc3n2Cc2ccc(C(=O)NO)cc2)C1 [Tubastatin A]
In short: as §1

[1] = compound: CNC(=O)C1=CC=CC=C1NC2=NC(=NC=C2Cl)NC3=C(C=C(C=C3)N4CCOCC4)OC
In short: as §1

defactinib = compound: CNC(=O)c1ccc(Nc2ncc(C(F)(F)F)c(NCc3nccnc3N(C)S(C)(=O)=O)n2)cc1 [defactinib]
In short: as §1

rucaparib = compound: CNCc1ccc(-c2[nH]c3cc(F)cc4c3c2CCNC4=O)cc1 [rucaparib]
In short: as §1

[2] = compound: CNc1nc(-c2ccc3c(N)n[nH]c3c2)cc(N2C[C@@H](C(=O)NC3CCCCC3)CC[C@H]2C)n1
In short: as §1

encorafenib = compound: COC(=O)N[C@@H](C)CNc1nccc(-c2cn(C(C)C)nc2-c2cc(Cl)cc(NS(C)(=O)=O)c2F)n1 [encorafenib]
In short: as §1

[3] = compound: COC(=O)[C@H](CCSC)NC(=O)C1=C(C=C(C=C1)NC[C@H](CS)N)C2=CC=CC=C2
In short: as §1

[4] = compound: COC1=CC=C(C=C1)CN2C=CC3=C2C=C(C=C3)C(=O)NO
In short: as §1

filanesib = compound: CON(C)C(=O)N1N=C(c2cc(F)ccc2F)S[C@@]1(CCCN)c1ccccc1 [filanesib]
In short: as §1

zotarolimus = compound: CO[C@H]1C[C@@H]2CC[C@@H](C)[C@@](O)(O2)C(=O)C(=O)N2CCCC[C@H]2C(=O)O[C@H]([C@H](C)C[C@@H]2CC[C@H](n3cnnn3)[C@H](OC)C2)CC(=O)[C@H](C)/C=C(\C)[C@@H](O)[C@@H](OC)C(=O)[C@H](C)C[C@H](C)/C=C/C=C/C=C/1C [zotarolimus]
In short: as §1

idasanutlin = compound: COc1cc(C(=O)O)ccc1NC(=O)[C@@H]1N[C@@H](CC(C)(C)C)[C@](C#N)(c2ccc(Cl)cc2F)[C@H]1c1cccc(Cl)c1F [idasanutlin]
In short: as §1

alisertib = compound: COc1cc(Nc2ncc3c(n2)-c2ccc(Cl)cc2C(c2c(F)cccc2OC)=NC3)ccc1C(=O)O [alisertib]
In short: as §1

[5] = compound: COc1cc2nc(-c3cc(F)ccc3O)nc(N[C@@H]3CNC[C@H]3C(C)(C)O)c2cc1OC
In short: as §1

gefitinib = compound: COc1cc2ncnc(Nc3ccc(F)c(Cl)c3)c2cc1OCCCN1CCOCC1 [gefitinib]
In short: as §1

[6] = compound: COc1cccc2cc(-c3nc([C@H]4CC[C@H](C(=O)O)CC4)n4ncnc(N)c34)[nH]c12
In short: as §1

lapatinib = compound: CS(=O)(=O)CCNCc1ccc(-c2ccc3ncnc(Nc4ccc(OCc5cccc(F)c5)c(Cl)c4)c3c2)o1 [lapatinib]
In short: as §1

pictilisib = compound: CS(=O)(=O)N1CCN(Cc2cc3nc(-c4cccc5[nH]ncc45)nc(N4CCOCC4)c3s2)CC1 [pictilisib]
In short: as §1

alvocidib = compound: CN1CC[C@H](c2c(O)cc(O)c3c(=O)cc(-c4ccccc4Cl)oc23)[C@H](O)C1 [alvocidib]
In short: as §1

Measured: log2 fold change

GPKOW (UniProt Q92917)
inactive: saracatinib -0.03 | sotrastaurin -0.031 | Tubastatin A 0.033 | [1] -0.107 | defactinib -0.178 | rucaparib -0.036 | [2] 0.069 | encorafenib 0.034 | [3] -0.032 | [4] -0.055 | filanesib -0.118 | zotarolimus 0.024 | idasanutlin -0.06 | alisertib 0.039 | [5] -0.021 | gefitinib 0.047 | [6] 0.11 | lapatinib -0.005 | pictilisib -0.037

GPR180 (UniProt Q86V85)
inactive: saracatinib 0.094 | sotrastaurin -0.05 | alvocidib -0.138 | Tubastatin A -0.057 | defactinib -0.017 | [2] 0.33 | [3] 0.067 | filanesib -0.168 | zotarolimus -0.027 | idasanutlin -0.054 | alisertib -0.071 | [5] 0.117 | [6] 0.229 | lapatinib -0.032 | pictilisib 0.111

GLS (UniProt O94925)
inactive: saracatinib 0.039 | sotrastaurin -0.023 | Tubastatin A 0.021 | [1] -0.031 | defactinib -0.167 | rucaparib 0.002 | [2] -0.092 | encorafenib 0.017 | [3] -0.093 | [4] 0.009 | filanesib 0.029 | zotarolimus 0.027 | idasanutlin -0.192 | alisertib 0.143 | [5] 0.22 | gefitinib 0.033 | [6] -0.009 | lapatinib -0.052 | pictilisib 0.049

Quoted from the results shown (two entries):
GPKOW (UniProt Q92917)
inactive: saracatinib -0.03 | sotrastaurin -0.031 | Tubastatin A 0.033 | [1] -0.107 | defactinib -0.178 | rucaparib -0.036 | [2] 0.069 | encorafenib 0.034 | [3] -0.032 | [4] -0.055 | filanesib -0.118 | zotarolimus 0.024 | idasanutlin -0.06 | alisertib 0.039 | [5] -0.021 | gefitinib 0.047 | [6] 0.11 | lapatinib -0.005 | pictilisib -0.037

GPR180 (UniProt Q86V85)
inactive: saracatinib 0.094 | sotrastaurin -0.05 | alvocidib -0.138 | Tubastatin A -0.057 | defactinib -0.017 | [2] 0.33 | [3] 0.067 | filanesib -0.168 | zotarolimus -0.027 | idasanutlin -0.054 | alisertib -0.071 | [5] 0.117 | [6] 0.229 | lapatinib -0.032 | pictilisib 0.111

Going on with the list:

GNPAT (UniProt O15228)
inactive: saracatinib 0.01 | sotrastaurin 0.077 | Tubastatin A -0.047 | [1] 0.045 | defactinib -0.035 | rucaparib -0.06 | [2] -0.041 | encorafenib 0.001 | [3] -0.027 | [4] 0.008 | filanesib -0.054 | zotarolimus 0.064 | idasanutlin -0.05 | alisertib -0.038 | [5] -0.022 | gefitinib 0.03 | [6] 0 | lapatinib 0.061 | pictilisib 0.148

GMEB2 (UniProt Q9UKD1)
inactive: saracatinib 0.018 | sotrastaurin -0.019 | Tubastatin A 0.051 | [1] -0.065 | defactinib -0.156 | [2] -0.023 | encorafenib -0.007 | [3] 0.008 | [4] -0.027 | filanesib 0.04 | zotarolimus 0.03 | idasanutlin 0.073 | alisertib -0.009 | [5] 0.053 | gefitinib 0.038 | [6] 0.027 | lapatinib -0.022 | pictilisib 0.101
active: rucaparib 0.275

GOLPH3 (UniProt Q9H4A6)
inactive: saracatinib -0.016 | sotrastaurin -0.046 | Tubastatin A 0.028 | [1] 0.022 | defactinib -0.064 | rucaparib -0.064 | [2] 0.013 | encorafenib 0.047 | [3] -0.044 | [4] 0.011 | filanesib -0.03 | zotarolimus 0.048 | idasanutlin -0.057 | alisertib -0.024 | [5] 0.131 | gefitinib 0.023 | [6] 0.012 | lapatinib -0.055 | pictilisib -0.051

GIGYF2 (UniProt Q6Y7W6)
inactive: saracatinib -0.097 | sotrastaurin -0.111 | Tubastatin A 0.023 | [1] 0.005 | defactinib -0.04 | rucaparib 0.065 | [2] 0.016 | encorafenib -0.018 | [3] -0.022 | [4] 0.005 | filanesib 0.008 | zotarolimus 0.016 | idasanutlin 0 | alisertib -0.023 | [5] 0.07 | gefitinib -0.043 | [6] -0.026 | lapatinib -0.016 | pictilisib -0.027

GNAI3 (UniProt P08754)
inactive: saracatinib 0.063 | sotrastaurin -0.011 | Tubastatin A 0.046 | [1] 0.093 | defactinib -0.041 | rucaparib -0.009 | [2] 0.025 | encorafenib -0.004 | [3] -0.003 | [4] -0.041 | filanesib -0.002 | zotarolimus -0.081 | idasanutlin -0.004 | alisertib -0.124 | [5] 0.066 | gefitinib 0.118 | [6] -0.013 | lapatinib 0.009 | pictilisib 0.059

GMEB1 (UniProt Q9Y692)
inactive: saracatinib -0.055 | sotrastaurin -0.06 | Tubastatin A -0.022 | [1] 0.028 | defactinib -0.06 | rucaparib -0.047 | [2] -0.051 | encorafenib 0.043 | [3] -0.003 | [4] 0.049 | filanesib 0.205 | zotarolimus 0.042 | idasanutlin 0.027 | alisertib -0.041 | [5] -0.042 | gefitinib -0.049 | [6] 0.008 | lapatinib 0.031 | pictilisib -0.087
